From PubChem BioAssay AID1347076 (National Center for Advancing Translational Sciences (NCATS), 2019)
About 13,000 (3.2%) of roughly 400,000 compounds were called active. The inconclusive results got no clear call from the source; some entries with a clear call stand among them for comparison. Calls come from the whole dose curve; as a rule, active = well fitted cell-killing curve with a large enough effect; inconclusive = small, poorly fitted or top-dose-only effect, or effect the other way; inactive = flat fitted curve, though single readings scatter. A potency beside an inconclusive call is a rough fit, not a confirmed value.

Assay: qHTS assay for MDR1-selective chemotherapeutics: Primary screen using the drug-selected MDR subline cells KB-V1; note: nearly all actives have a fitted effect of over 60% in size
Conditions: KB-V1 MDR cells viability, CellTiter-Glo, 72 h; activity change, negative = cytotoxicity: at 46.1 µM (top of the series)
Procedure, shortened: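 Cytotoxicity via CellTiter-Glo luminescence after 72 h compound exposure at 37 degrees C. Cells: drug-selected KB-V1 line, DMEM phenol-red free plus 10% FBS. Compounds tested at multiple concentrations; normalized data fitted to concentration-effect curves.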
% is set by controls: 0 for no effect and ±100 for the full control effect; potency is the fitted concentration of half-maximal effect.

Q: Which “activity change, negative = cytotoxicity” value does the source give for `COc1cc(C(=O)NCCCNc2nc3c(C)cc(C)cc3cc2C#N)cc(OC)c1OC` here?
A: inactive: -1.71%

Q: Which “activity change, negative = cytotoxicity” value does the source give for `OC[C@@H]1CN(Cc2ccc3c(c2)OCO3)C[C@H](n2cnc3c(NC4CC4)ncnc32)O1` here?
A: inactive: 4.28%

Q: Which Potency does the source give for `COCCn1c(C)cc(C2=NNC(=Nc3ccccc3F)SC2)c1C` here?
A: active: 11.6 µM

Q: For `O=C(COc1ccc(Cl)cc1)NCc1nnc(SCC(=O)Nc2ccc(F)cc2F)o1`, which “activity change, negative = cytotoxicity” value is on record?
A: inactive: -10.7%

Q: Which Potency does the source give for `Cc1cc(/C=C2/NC(=O)N(Cc3ccccc3F)C2=O)c(C)n1C(C)C` here?
A: inconclusive: 20.6 µM [cytotoxic, single point]

Q: For `COc1ccc(OCCN2CCN(C(=O)c3ccc(OC(F)F)c(OC)c3)CC2)cc1`, which Potency is on record?
A: inconclusive: 29.1 µM [cytotoxic, single point]

Q: Which Potency does the source give for `COc1ccc(O)c(CNn2c(-c3ccc(Br)cc3)nc3ccccc3c2=O)c1` here?
A: inconclusive: 11.6 µM [cytotoxic, partial curve]

Q: Which Potency does the source give for `Cc1ccc(NC(=O)c2nc(S(=O)(=O)Cc3ccccc3)ncc2Cl)cc1` here?
A: inconclusive: 16.4 µM [cytotoxic, single point]

Q: Which Potency does the source give for `COCCCN(C(=O)c1cc2c(s1)CCCCC2)c1c(N)n(Cc2ccccc2)c(=O)[nH]c1=O` here?
A: inconclusive: 16.4 µM [rising, single point]

Q: Which Potency does the source give for `C/C(=N/NC(=O)c1sc(NS(=O)(=O)c2ccc(C)cc2)nc1C)c1sc(N)nc1C` here?
A: inconclusive: 2.91 µM [rising, full curve]

Q: With `CCOC(=O)c1c(C)c(C(=O)Nc2cc(F)ccc2F)c(C)n1C` as the molecule, how does the Potency read?
A: active: 2.59 µM

Q: Which Potency does the source give for `FC(F)(F)c1ccc2c(c1)C1C=CCC1C(c1ccncc1)N2` (configuration not stated) here?
A: inconclusive: 29.1 µM [cytotoxic, single point]

Q: Which Potency does the source give for `Cc1ccc(/C=N/NC(=O)c2ccncc2)cc1` here?
A: inconclusive: 29.1 µM [rising, single point]

Q: With `Cc1ccc(N(C(=O)c2csnn2)C(C(=O)NC2CCCC2)c2ccncc2)c(C)c1` (configuration not stated) as the molecule, how does the Potency read?
A: inconclusive: 18.4 µM [cytotoxic, single point]

Q: With `COc1ccccc1N1CCN(C(=O)c2ccc([N+](=O)[O-])s2)CC1` as the molecule, how does the Potency read?
A: inconclusive: 25.9 µM [cytotoxic, single point]

Q: Which “activity change, negative = cytotoxicity” value does the source give for `O=C(CCN1C(=O)/C(=C/c2ccccc2F)SC1=S)NCCCN1CCOCC1` here?
A: inactive: 3.77%

Q: Which Potency does the source give for `Cc1ccccc1NC(=S)NCc1ccc(Cl)cc1` here?
A: inconclusive: 16.4 µM [cytotoxic, partial curve]

Q: For `O=C(Cc1cccc(C(F)(F)F)c1)NCC(=O)Nc1cc(Cl)ccc1Cl`, which Potency is on record?
A: inconclusive: 29.1 µM [cytotoxic, single point]

Q: For `COc1ccc2sc3cccc(NCCN(C)C)c3c(=O)c2c1`, which Potency is on record?
A: inconclusive: 20.6 µM [cytotoxic, single point]

Q: With `CCCNC(=O)c1ccc(N2CCC3(CC2)CC(c2cccc(Br)c2)=NO3)c([N+](=O)[O-])c1` as the molecule, how does the “activity change, negative = cytotoxicity” value read?
A: inactive: -5.47%

Q: Which Potency does the source give for `COc1ccc(-c2nn(-c3ccccc3)cc2/C=N/NC(N)=S)cc1OC` here?
A: inconclusive: 2.91 µM [cytotoxic, partial curve, poor fit]

Q: With `Cc1ccccc1OCCNc1ccc(C(F)(F)F)cc1[N+](=O)[O-]` as the molecule, how does the Potency read?
A: inconclusive: 18.4 µM [cytotoxic, single point]

Q: Which Potency does the source give for `O=C1c2cccc3c([N+](=O)[O-])ccc(c23)C(=O)N1c1nccs1` here?
A: inconclusive: 14.6 µM [cytotoxic, partial curve, poor fit]

Q: Which Potency does the source give for `Cc1cc(C)c(S(=O)(=O)Nc2ccc(N(C)C)cc2)c(C)c1-n1cnnn1` here?
A: inconclusive: 20.6 µM [cytotoxic, partial curve, poor fit]

Q: For `O=c1c2ccccc2nc(SCc2nnc(-c3ccccc3Br)o2)n1Cc1ccco1`, which Potency is on record?
A: inconclusive: 23.1 µM [cytotoxic, partial curve]

Q: With `CS(=O)(=O)N(CC(=O)N1CCN(c2ccccc2F)CC1)c1ccc2c(c1)OCCO2` as the molecule, how does the Potency read?
A: inconclusive: 20.6 µM [cytotoxic, single point]

Q: With `Cc1ccc(CNC(=O)Cc2ccc(Br)cc2)cc1` as the molecule, how does the Potency read?
A: inconclusive: 20.6 µM [cytotoxic, partial curve, poor fit]

Q: With `O=C(NNC(=O)c1ccccc1O)c1ccc(-c2ccc([N+](=O)[O-])cc2)o1` as the molecule, how does the “activity change, negative = cytotoxicity” value read?
A: inactive: -22.3%

Q: Which Potency does the source give for `C/C(=N\NC(=O)c1c(Cl)cnn1C)c1cccc(NC(=O)C(C)C)c1` here?
A: inconclusive: 23.1 µM [cytotoxic, partial curve, poor fit]

Q: For `O=C(CCn1c(=S)[nH]c2ccccc2c1=O)NCCSCc1ccccc1`, which Potency is on record?
A: inconclusive: 16.4 µM [cytotoxic, single point]

Q: Which “activity change, negative = cytotoxicity” value does the source give for `CC(C)Oc1cccc(-c2cc(C(=O)N3CCN(S(C)(=O)=O)CC3)c3ccccc3n2)c1` here?
A: inactive: -6.45%

Q: Which Potency does the source give for `COc1ccc(NC(=O)COc2ccccc2F)cc1S(=O)(=O)N1CCCCC1` here?
A: inconclusive: 9.2 µM [cytotoxic, partial curve, poor fit]

Q: With `O=C(c1ccco1)N1CCN(C(=O)c2cc(-c3ccccn3)nc3ccc(Cl)cc23)CC1` as the molecule, how does the Potency read?
A: inconclusive: 2.91 µM [cytotoxic, partial curve, poor fit]

Q: With `CC1(C(=O)NCC2CC2)Cc2c(-c3cccc(C(F)(F)F)c3)ccnc2O1` (configuration not stated) as the molecule, how does the Potency read?
A: inconclusive: 9.2 µM [cytotoxic, partial curve]

Q: Which “activity change, negative = cytotoxicity” value does the source give for `CCOC(=O)C1=C(CN2CCSCC2)NC(=O)NC1c1ccc2c(c1)OCO2` (configuration not stated) here?
A: inactive: -42.6%

Q: Which Potency does the source give for `CCCC[C@@H]1Cc2[nH][nH]c(=O)c2[C@@H](c2ccc(Cl)cc2)O1` here?
A: inconclusive: 29.1 µM [rising, single point]

Q: With `CN(C)[C@@H](CO)c1nnc([C@H](CC(=O)O)NC(=O)C2CCNCC2)o1` as the molecule, how does the Potency read?
A: inconclusive: 29.1 µM [rising, single point]

Q: Which Potency does the source give for `CC(=O)OCC1=C(C(=O)O)N2C(=O)C(NC(=O)CC(C)c3ccccc3)C2SC1` (configuration not stated) here?
A: inconclusive: 29.1 µM [rising, single point]

Q: For `Clc1ccccc1C1Nc2cccc3cccc(c23)N1`, which “activity change, negative = cytotoxicity” value is on record?
A: inactive: 15.3%

Q: For `Cn1c(SCC(=O)N2CCN(Cc3ccccc3)CC2)nnc1-c1ccncc1`, which “activity change, negative = cytotoxicity” value is on record?
A: inactive: -3.74%

Q: With `O=C(CSc1nc2ncc(Cl)cc2[nH]1)N1CCOCC1` as the molecule, how does the Potency read?
A: inconclusive: 7.31 µM [rising, partial curve, poor fit]

Q: For `Cc1ccc(C(=O)c2ccccc2C(=O)OCC(=O)Nc2ccc(SC(F)F)cc2)cc1`, which Potency is on record?
A: active: 11.6 µM
